Results reported in publication PMC8395201.
No constants are given. Whether binding was seen depends on the method and setting. In cells and extracts the contact can be indirect. Some binding calls cover weakened binding; strength is not graded here.

Protein sequences, listed by entry. Tags and fused reporters are not part of them. Residues count along the entry.
UniProt P23975: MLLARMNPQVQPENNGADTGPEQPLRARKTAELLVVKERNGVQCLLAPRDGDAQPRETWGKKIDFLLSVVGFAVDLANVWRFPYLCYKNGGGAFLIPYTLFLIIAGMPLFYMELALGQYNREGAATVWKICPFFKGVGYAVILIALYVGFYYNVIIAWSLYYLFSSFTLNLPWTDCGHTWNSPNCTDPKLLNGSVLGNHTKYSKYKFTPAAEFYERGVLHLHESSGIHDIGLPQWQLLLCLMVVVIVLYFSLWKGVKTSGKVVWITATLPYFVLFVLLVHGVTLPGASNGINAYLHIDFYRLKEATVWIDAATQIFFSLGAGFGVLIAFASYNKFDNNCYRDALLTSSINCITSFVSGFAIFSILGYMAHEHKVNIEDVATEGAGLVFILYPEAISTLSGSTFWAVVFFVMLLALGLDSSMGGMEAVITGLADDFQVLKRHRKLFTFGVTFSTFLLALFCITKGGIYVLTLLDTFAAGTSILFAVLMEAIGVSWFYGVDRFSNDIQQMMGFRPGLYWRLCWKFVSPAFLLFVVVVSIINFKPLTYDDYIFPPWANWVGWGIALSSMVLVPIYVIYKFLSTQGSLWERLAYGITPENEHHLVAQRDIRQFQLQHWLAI
UniProt Q16288, residues 32-839: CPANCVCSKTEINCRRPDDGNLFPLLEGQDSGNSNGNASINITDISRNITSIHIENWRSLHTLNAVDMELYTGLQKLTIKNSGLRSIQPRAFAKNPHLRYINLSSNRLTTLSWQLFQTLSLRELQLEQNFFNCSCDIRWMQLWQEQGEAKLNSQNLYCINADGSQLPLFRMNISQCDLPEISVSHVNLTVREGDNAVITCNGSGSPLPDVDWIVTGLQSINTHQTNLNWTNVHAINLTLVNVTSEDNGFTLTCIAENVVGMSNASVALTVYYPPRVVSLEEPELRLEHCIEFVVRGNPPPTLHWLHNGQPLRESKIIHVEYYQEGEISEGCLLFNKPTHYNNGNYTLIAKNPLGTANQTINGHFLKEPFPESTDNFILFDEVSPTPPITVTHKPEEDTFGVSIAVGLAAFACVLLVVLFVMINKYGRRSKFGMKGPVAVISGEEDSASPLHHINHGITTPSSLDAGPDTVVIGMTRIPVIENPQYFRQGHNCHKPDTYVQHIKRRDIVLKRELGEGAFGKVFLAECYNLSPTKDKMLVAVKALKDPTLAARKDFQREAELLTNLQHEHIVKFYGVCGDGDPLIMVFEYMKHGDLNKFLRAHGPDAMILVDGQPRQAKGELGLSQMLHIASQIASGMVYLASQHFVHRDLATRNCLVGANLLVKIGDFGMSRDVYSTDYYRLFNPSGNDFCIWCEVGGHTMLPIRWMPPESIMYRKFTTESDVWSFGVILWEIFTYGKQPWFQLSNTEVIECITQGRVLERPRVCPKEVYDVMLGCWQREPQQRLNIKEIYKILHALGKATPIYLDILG

B1: neurotrophin-3 (NT-3) (ligand, UniProt P20783 139-257)
chain: YAEHKSHRGEYSVCDSESLWVTDKSSAIDIRGHQVTVLGEIKTGNSPVKQYFYETRCKEARPVKNGCRGIDDKHWNSQCKTSQTYVRALTSENNKLVGWRWIRIDTSCVCALSRKIGRT

Key:
Test in all cases: co-IP; lysate of T cells of healthy controls; lysis buffer Tris-HCl 50 mM, NaCl 120 mM, IGEPAL 0.5%, NaF 100 mM, NaVO3 2 mM; primary antibody overnight at 4 °C, Protein A/G Plus Agarose; Western blot with densitometry
[1] = target: norepinephrine transporter (NET) (human (endogenous in T cells of peripheral blood)) (UniProt P23975)
[2] = target: T1, neurotrophin-3 (NT-3) (human (endogenous in T cells of peripheral blood)) (UniProt P20783)
T1 sequence: B1 chain

[3] = target: tropomyosin receptor kinase C (TrkC) (human (endogenous in T cells of peripheral blood)) (UniProt Q16288)

Row | Molecule | binding [1] | binding [2] | binding [3]
1 | tropomyosin receptor kinase C (TrkC) (from UniProt Q16288 32-839) | binds |  | 
2 | norepinephrine transporter (NET) (from UniProt P23975 1-617) |  | binds | binds
3 | B1 | binds |  | 
